Data taken from PubChem BioAssay AID540276 (National Center for Advancing Translational Sciences (NCATS), 2011).
Several values for one entry are separate records, joined by “and”; a condition that tells them apart may be missing. Equal values may be shown once. The campaign covered roughly 300,000 compounds. About 5,400 (1.8%) were called active. The shares of active, inactive and inconclusive entries below differ from those in the screen. The call rests on the fitted dose curve; tested in HEK293 cells. Where the call is inconclusive, the potency comes from a doubtful curve fit.

Experiment: qHTS for inhibitors of binding or entry into cells for Marburg Virus
Conditions: Marburg virus pseudotyped entry inhibition, cell reporter; activity change, negative = inhibition: at 37.8 µM (top of the series) unless noted
On the % scale 0 is the no-effect control and ±100 the full control effect; potency means the concentration at half of the fitted maximal effect.

Compound | Potency | activity change, negative = inhibition
COc1ccccc1C(=O)Nc1cccc(OCc2cc(=O)n3c(C)csc3n2)c1 | inconclusive: 35.5 µM [inhibitor, single point] | –
COc1cc(/C=C(/NC(=O)c2ccccc2)C(=O)Nc2ccccc2)c([N+](=O)[O-])cc1OC | – | inactive: 2.63%
Cc1ccc(N2CCN(S(=O)(=O)c3ccc4oc(=O)ccc4c3)CC2)cc1Cl | inconclusive: 15.8 µM [activator, single point] | –
O=C(NCc1ccccc1)c1ccc2nnsc2c1 | inconclusive: 10 µM [inhibitor, partial curve, poor fit] | –
CC(C)c1nnc(NC(=O)CSc2ccccc2)s1 | inconclusive: 2.24 µM [activator, partial curve, poor fit] | –
COc1ccc(CONS(=O)(=O)c2ccc(NC(C)=O)cc2)cc1Cl | – | inactive: -8.15%
CCOc1ccc(CCNC(=O)c2cccc(S(=O)(=O)N3CCN(C(C)=O)CC3)c2)cc1OCC | – | inactive: -3.54%
COc1ccc(NC(=S)N2CCC(NC(=O)c3cccc(C)c3)CC2)cc1 | inconclusive: 11.2 µM [activator, partial curve, poor fit] | –
Nc1nnc(SCC(=O)Nc2cccc(F)c2)s1 | inconclusive: 14.1 µM [activator, partial curve, poor fit] | –
COc1nc(N)c(S(=O)(=O)c2ccc(C)cc2)cc1C#N | inconclusive: 0.0259 µM [inhibitor, full curve, poor fit] | –
COc1cccc(-c2cc(C(F)(F)F)nc(N3CCC(C)CC3)n2)c1 | inconclusive: 3.26 µM [inhibitor, partial curve, poor fit] | –
CCOc1ccc(-n2cnc3sc(C)c(C)c3c2=O)cc1 | – | inactive: 8.8% [at 46.1 µM]
O=S(=O)(NCCc1ccccc1)c1cccc2cccnc12 | – | inactive: 4.87%
O=c1[nH]c(CSc2ncc(C(F)(F)F)cc2Cl)nc2ccccc12 | inconclusive: 3.55 µM [inhibitor, partial curve] | –
O=C(O)COCCN1CCN(C(c2ccccc2)c2ccc(Cl)cc2)CC1 (stereo not drawn) | inactive and inconclusive: 14.1 µM [activator, single point] | –
CC(C)C(CCNC(=O)CN1C(=O)c2ccccc2C1=O)c1ccco1 (stereo not drawn) | – | inactive: 2.16%
Cc1nn(S(=O)(=O)c2ccc(C(C)(C)C)cc2)c(C)c1S(=O)(=O)N1CCOCC1 | inconclusive: 28.2 µM [activator, single point] | –
C/C(CCc1ccccc1)=N\NC(=O)COc1ccccc1C | inconclusive: 8.91 µM [inhibitor, partial curve, poor fit] | –
O=C(O)C(C1CCCCC1)C1(O)CCCC1 (stereo not drawn) | – | inactive: 8.47%
CCOC(=O)C1=C(COC(=O)c2cc(S(=O)(=O)N(C)C)ccc2C)NC(=O)NC1C (stereo not drawn) | inconclusive: 11.2 µM [inhibitor, partial curve, poor fit] | –
O=[N+]([O-])c1cc(-c2cccnc2)n[nH]1 | inconclusive: 10 µM [inhibitor, partial curve] | –
O=c1[nH]cnc2nc(-c3ccc(N(CCCl)CCCl)cc3)[nH]c12 | inconclusive: 12.6 µM [inhibitor, partial curve, poor fit] | –
COc1cccc(N=C2SC(CC(=O)Nc3ccccc3)C(=O)N2Cc2ccccn2)c1 (stereo not drawn) | inconclusive: 15.8 µM [inhibitor, single point] | –

3 compounds picked at random from the list so far:
Compound | Potency | activity change, negative = inhibition
COc1cccc(N=C2SC(CC(=O)Nc3ccccc3)C(=O)N2Cc2ccccn2)c1 (stereo not drawn) | inconclusive: 15.8 µM [inhibitor, single point] | –
O=c1[nH]c(CSc2ncc(C(F)(F)F)cc2Cl)nc2ccccc12 | inconclusive: 3.55 µM [inhibitor, partial curve] | –
C/C(CCc1ccccc1)=N\NC(=O)COc1ccccc1C | inconclusive: 8.91 µM [inhibitor, partial curve, poor fit] | –

Further records

Compound | Potency | activity change, negative = inhibition
COc1ccccc1NC(=O)CN(c1ccc([N+](=O)[O-])cc1)S(=O)(=O)c1ccccc1 | inconclusive: 0.199 µM [inhibitor, full curve, poor fit] | –
O=C(c1cc(Cl)nc2ccccc12)N1CCN(Cc2ccc3c(c2)OCO3)CC1 | inconclusive: 6.31 µM [inhibitor, partial curve, poor fit] | –
O=C(CCS(=O)(=O)c1nc(-c2cccs2)cc(C(F)(F)F)n1)Nc1ccc(Br)cc1 | inconclusive: 35.5 µM [inhibitor, single point] | –
CCc1nc(SCC(=O)N2CCCc3ccccc32)c2oc3ccccc3c2n1 | inconclusive: 25.9 µM [inhibitor, partial curve, poor fit] | –
O=c1ccn(Cc2ccc(F)cc2)c2ccnc(C(F)(F)F)c12 | inconclusive: 6.31 µM [inhibitor, single point] | –
COCCN1Cc2cccc(C(=O)Nc3ccc(C(=O)OC)cc3)c2C1=O | – | inactive: 0.697% [at 46.1 µM]
COc1ccccc1N1CCN(Cc2cc(C)c(C)cc2O)CC1 | inconclusive: 35.5 µM [inhibitor, single point] | –
COc1ccccc1-c1ccc(Nc2cccc(C(C)=O)c2)nn1 | – | inactive: -2.7%
O=[N+]([O-])c1ccc(COc2cccc3cccnc23)cc1 | – | inactive: 4.38%
COc1ccc2sc(NC(C)=O)nc2c1 | inconclusive: 29.1 µM [inhibitor, single point] | –
COc1ccc(NS(=O)(=O)c2cc(N/C(=N\S(=O)(=O)c3ccccc3)c3ccc(F)cc3)ccc2Cl)cc1 | active: 11.6 µM | –
Nc1nc(-c2ccccc2Cl)cs1 | inconclusive: 0.708 µM [inhibitor, single point] | –
CCCCC(c1nnnn1C1CCCC1)N1CCN(C2CCCC2)CC1 (stereo not drawn) | – | inactive: -25.2% [at 46.1 µM]
Cc1ccc(C(=O)c2nc3c(n2O)CCCC3)cc1 | inconclusive: 28.2 µM [activator, partial curve, poor fit] | –
COc1ccc2c(c1)O[C@H](c1cccc(C(F)(F)F)c1)[C@@H](O)C2=O | – | inactive: -33.2% [at 14.2 µM]
COc1ccc(OC)c(NC(=O)c2nc(S(=O)(=O)Cc3ccccc3)ncc2Cl)c1 | inconclusive: 35.5 µM [inhibitor, single point] | –
COc1cc2c(cc1OC)CN(C(=O)c1oc3ccccc3c1C)CC2 | inconclusive: 10 µM [inhibitor, partial curve] | –
COc1ccc(CCn2c(=S)[nH]c3cc(C(=O)NCc4ccco4)ccc3c2=O)cc1OC | inconclusive: 20.6 µM [inhibitor, partial curve, poor fit] | –
CC1(C)CCC(=NNC(N)=S)CC1 | inconclusive: 0.112 µM [inhibitor, full curve, poor fit] | –
CC(=O)c1cnc2c(-c3ccccc3)cnn2c1C | inconclusive: 0.0231 µM [activator, partial curve, poor fit] | –
COc1cc2oc(=O)c(CC(=O)NCCc3ccccc3)c(C)c2cc1Cl | – | inactive: 5.12% [at 46.1 µM]
COc1ccc(C(=O)NC2CCSC2=O)cc1 (stereo not drawn) | inconclusive: 23.1 µM [activator, single point] | –
Cc1ccc(S(=O)(=O)N2CCN(C(C(=O)Nc3ccc(F)cc3)c3ccccc3)CC2)cc1 (stereo not drawn) | inconclusive: 11.2 µM [inhibitor, partial curve, poor fit] | –

Compound | Potency | activity change, negative = inhibition
COc1cc(/C=N/NC(=O)c2cccc(N3CCCC3=O)c2)ccc1O | – | inactive: 0.802%
CNC(=O)CCc1[nH]c2ccccc2c1Sc1ccccc1 | inconclusive: 0.891 µM [inhibitor, single point] | –
Cc1ccccc1OCCC(=O)NCCc1ccc(S(N)(=O)=O)cc1 | inconclusive: 35.5 µM [activator, single point] | –
COc1ccc(-n2c(C)c(C)c3c(NCCO)ncnc32)cc1 | inconclusive: 0.0891 µM [inhibitor, full curve, poor fit] | –
Cc1nn(C)cc1CNC(=O)CCC(=O)O | inconclusive: 3.16 µM [activator, partial curve, poor fit] | –
O=C(Cc1ccc(Cl)cc1)Nc1ccc(N2CCCC2)cc1 | – | inactive: 18.1%
Cc1ccc(NC(=O)c2cc(-c3cccs3)nc3ccccc23)nc1 | inconclusive: 2.24 µM [inhibitor, full curve] | –
CC(C)(C)C(=O)NNC(=O)c1cc2sccc2s1 | – | inactive: 1.72% [at 46.1 µM]
O=C(Cc1ccc(S(=O)(=O)N2CCOCC2)s1)NCCC(c1ccccc1)c1ccccc1 | inconclusive: 29.1 µM [inhibitor, partial curve, poor fit] | –
CCc1nc2oc3ccccc3c(=O)c2c(=O)n1-c1ccc(C)cc1 | inconclusive: 3.98 µM [activator, full curve] | –
Oc1ccccc1/C=N/NC(=S)NC1CC2C=CC1C2 (stereo not drawn) | inconclusive: 35.5 µM [inhibitor, single point] | –
CN(C)c1ccc(/C=C(\NC(=O)c2ccccc2)C(=O)NCCCN2CCOCC2)cc1 | inconclusive: 1.78 µM [activator, partial curve, poor fit] | –
COc1ccc(-c2cn(-c3ccc(Br)cc3)c3[n+]2CCS3)cc1 | – | inactive: -25.4%
CC(Oc1ccc(Cl)cc1)/C(N)=N/O (stereo not drawn) | inconclusive: 8.91 µM [activator, partial curve, poor fit] | –
COc1cc(OC)cc(C(=O)N2CCN(C(=O)c3ccc(-c4ccccc4)cc3)CC2)c1 | inconclusive: 25.1 µM [inhibitor, partial curve, poor fit] | –
CCOC(=O)C1=C(C)NC(C)=C(C(=O)OCC)C1c1cccs1 | – | inactive: -6.75%
CCCC(C(=O)NCc1ccco1)N(C(=O)CNS(=O)(=O)c1ccccc1)C1CCCC1 (stereo not drawn) | inconclusive: 25.1 µM [inhibitor, single point] | –
O=C1NCN(c2ccccc2)C12CCN(CC1COc3ccccc3O1)CC2 (stereo not drawn) | inconclusive: 0.199 µM [inhibitor, full curve] | –
O=[N+]([O-])c1cccc(/C=N/Nc2nccnc2Cl)c1 | – | inactive: 13.1%
COc1cccc(-c2nnc(SCC(=O)OC(C)C)n2Cc2ccco2)c1 | inconclusive: 3.55 µM [activator, partial curve] | –
O=C(CCc1ccccc1)NNC(=O)COc1ccc(Br)cc1 | – | inactive: 1.93% [at 46.1 µM]
CCOC(=O)Cn1c(=O)c2c(nc3n2CCS3)n(C)c1=O | inconclusive: 20.6 µM [inhibitor, partial curve, poor fit] | –
